From patent US20050176775A1, “Substituted pyridinones” (priority 2003, published 2005)
pIC50: −log10 of the molar value. Structures can show the parent of a compound that is named as a salt. Some results were stated once for a whole list of compounds, not compound by compound.

The chains behind the UniProt entries cited, without tags or fusion partners.
UniProt Q16539, whole entry: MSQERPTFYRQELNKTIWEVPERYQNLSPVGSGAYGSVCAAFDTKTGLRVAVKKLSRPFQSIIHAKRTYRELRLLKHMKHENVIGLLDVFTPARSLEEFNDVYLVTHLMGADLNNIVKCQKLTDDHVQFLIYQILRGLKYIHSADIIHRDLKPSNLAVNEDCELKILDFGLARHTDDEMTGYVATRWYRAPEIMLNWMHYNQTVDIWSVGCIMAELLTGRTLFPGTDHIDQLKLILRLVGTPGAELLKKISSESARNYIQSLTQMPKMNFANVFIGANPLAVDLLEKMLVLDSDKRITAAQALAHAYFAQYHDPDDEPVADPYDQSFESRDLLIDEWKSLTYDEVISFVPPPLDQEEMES

Biological target: T1, human p38 kinase alpha (Homo sapiens, UniProt Q16539)
T1 construct: made in house; host or cells: E. coli DH10B
Assay: p38 alpha kinase assay (PHAS-I / 32P-ATP format or EGFRP / 33P-ATP format)
Type: biochemical
Details: inhibition of activated human p38 kinase alpha; the text does not say which of the two in vitro formats was used
Method: The ability of compounds to inhibit human p38 kinase alpha was evaluated using two in vitro assay methods. In the first method, activated human p38 kinase alpha phosphorylates a biotinylated substrate, PHAS-I (phosphorylated heat and acid stable protein-insulin inducible), in the presence of gamma ^32P-ATP (^32P-ATP). PHAS-I was biotinylated prior to the assay and provides a means of capturing the substrate, which is phosphorylated during the assay. p38 Kinase was activated by MKK6. Compounds were tested in 10 fold serial dilutions over the range of 100 μM to 0.001 μM using 1% DMSO. Each concentration of inhibitor was tested in triplicate.
All reactions were carried out in 96 well polypropylene plates. Each reaction well contained 25 mM HEPES pH 7.5, 10 mM magnesium acetate and 50 μM unlabeled ATP. […] Activated human p38 kinase alpha was used at 1 μg per 50 μl reaction volume representing a final concentration of 0.3 μM. Gamma ^32P-ATP was used to follow the phosphorylation of PHAS-I. ^32P-ATP has a specific activity of 3000 Ci/mmol and was used at 1.2 μCi per 50 μl reaction volume. The reaction proceeded either for one hour or overnight at 30° C.
Following incubation, 20 μl of reaction mixture was transferred to a high capacity streptavidin coated filter plate (SAM-streptavidin-matrix, Promega) prewetted with phosphate buffered saline. […] Filter plates were air-dried and 20 μl of scintillant was added. The plates were sealed and counted.
Compounds were tested in 10 fold serial dilutions over the range of 100 μM to 0.001 μM in 1% DMSO. Each concentration of inhibitor was tested in triplicate. […] Reactions were initiated by addition of 0.09 μg of activated, purified human GST-p38 kinase alpha. […] Following incubation for 60 minutes at room temperature, the reaction was stopped by addition of 150 μl of AG 1×8 resin in 900 mM sodium formate buffer, pH 3.0 (1 volume resin to 2 volumes buffer). The mixture was mixed three times with pipetting and the resin was allowed to settle. A total of 50 μl of clarified solution head volume was transferred from the reaction wells to Microlite-2 plates. 150 μl of Microscint 40 was then added to each well of the Microlite plate, and the plate was sealed, mixed, and counted.

Compound	pIC50
CCOC(=O)c1cccc(-n2c(C)cc(OCc3ccc(F)cc3F)c(Br)c2=O)c1 [Example 272, Ethyl 3-[3-bromo-4-[(2,4-difluorobenzyl)oxy]-6-methyl-2-oxopyridin-1(2H)-yl]benzoate]	> 6.00
COC(=O)c1ccc(C)c(-n2c(C)cc(OCc3ccc(F)cc3F)c(Cl)c2=O)c1 [Example 493, Methyl 3-[3-chloro-4-[(2,4-difluorobenzyl)oxy]-6-methyl-2-oxopyridin-1(2H)-yl]-4-methylbenzoate]	> 6.00
O=c1c(Cl)c(OCc2ccc(F)cc2F)cc(CO)n1-c1c(F)cc(F)cc1F [Example 316, 3-chloro-4-[(2,4-difluorobenzyl)oxy]-6-(hydroxymethyl)-1-(2,4,6-trifluorophenyl)pyridin-2(1H)-one]	> 6.00
Cc1cc(OCc2ccc(F)cc2F)c(Br)c(=O)n1Cc1cccc(CN2CCCCC2)c1 [Example 165]	> 6.00
Cc1cc(OCc2ccc(F)cc2F)c(Br)c(=O)n1Cc1ccc(C(=O)N(C)C)cc1 [Example 221]	> 6.00
Cc1cc(OCc2ccc(F)cc2F)c(Br)c(=O)n1Cc1cccc(CN2CCOCC2)c1 [Example 162]	> 6.00
Cc1cc(OCc2ccc(F)cc2F)c(Br)c(=O)n1Cc1cnc(CO)cn1 [Example 402, 3-bromo-4-[(2,4-difluorobenzyl)oxy]-1-{[5-(hydroxymethyl)pyrazin-2-yl]methyl}-6-methylpyridin-2(1H)-one]	> 6.00
O=c1c(Br)c(OCc2ccccc2)ccn1Cc1cccc(F)c1 [Example 8]	> 6.00
Cc1ccc(C(N)=O)cc1-n1c(C)cc(OCc2ccc(F)cc2F)c(Cl)c1=O [Example 590, 3-[3-chloro-4-[(2,4-difluorobenzyl)oxy]-6-methyl-2-oxopyridin-1(H)-yl]-4-methylbenzamide]	> 6.00
Cc1cnc(Cn2c(C)cc(OCc3ccc(F)cc3F)c(Cl)c2=O)cn1 [Example 446, 3-chloro-4-[(2,4-difluorobenzyl)oxy]-6-methyl-1-[(5-methylpyrazin-2-yl)methyl]pyridin-2(1H)-one]	> 6.00
Cc1cc(OCc2ccc(F)cc2F)c(Br)c(=O)n1-c1cccc(C(=O)NCCO)c1 [Example 280]	> 6.00
O=c1c(Br)c(OCc2ccc(F)cc2F)cc(CO)n1-c1c(F)cc(F)cc1F [Example 315, 3-bromo-4-[(2,4-difluorobenzyl)oxy]-6-(hydroxymethyl)-1-(2,4,6-trifluorophenyl)pyridin-2(1H)-one]	> 6.00
Cc1cc(OCc2ccc(F)cc2F)c(Br)c(=O)n1Cc1ccc(C(=O)NCCCN)cc1 [Example 218]	> 6.00
Cc1ccc(CO)cc1-n1c(C)cc(OCc2ccc(F)cc2F)c(Cl)c1=O [Example 482, 3-chloro-4-[(2,4-difluorobenzyl)oxy]-1-[5-(hydroxymethyl)-2-methylphenyl]-6-methylpyridin-2(1H)-one]	> 6.00
Cc1cc(OCc2ccc(F)cc2F)c(Br)c(=O)n1-c1cccc(C(N)=O)c1 [Example 290, 3-[3-bromo-4-[(2,4-difluorobenzyl)oxy]-6-methyl-2-oxopyridin-1(2H)-yl]benzamide]	> 6.00
O=c1c(Br)c(OCc2ccc(F)cc2F)cc(CN2CCOCC2)n1-c1c(F)cccc1F [Example 469, 3-bromo-4-[(2,4-difluorobenzyl)oxy]-1-(2,6-difluorophenyl)-6-(morpholin-4-ylmethyl)pyridin-2(1H)-one]	> 6.00
Cc1cc(OCc2ccc(F)cc2F)c(Br)c(=O)n1-c1cccc(C(=O)N(C)C)c1 [Example 278]	> 6.00
COCCNCc1cc(OCc2ccc(F)cc2F)c(Br)c(=O)n1-c1c(F)cccc1F [Example 470, 3-bromo-4-[(2,4-difluorobenzyl)oxy]-1-(2,6-difluorophenyl)-6-{[(2-methoxyethyl)amino]methyl}pyridin-2(1H)-one]	> 6.00
O=c1c(Br)c(OCc2ccccc2)ccn1Cc1ccccc1F [Example 10]	> 6.00
Cc1cc(NCc2ccc(F)cc2)c(Br)c(=O)n1Cc1ccc(F)cc1 [Example 422, 3-bromo-1-(4-fluorobenzyl)-4-[(4-fluorobenzyl)amino]-6-methylpyridin-2(1H)-one]	> 6.00
Cc1cc(OCc2ccc(F)cc2F)c(Br)c(=O)n1-c1ccc(CNC(=O)CO)cc1 [Example 609, N-{4-[3-bromo-4-[(2,4-difluorobenzyl)oxy]-6-methyl-2-oxopyridin-1(2H)-yl]benzyl}-2-hydroxyacetamide]	> 6.00

Compound	pIC50
Cc1cc(OCc2ccc(F)cc2F)c(Br)c(=O)n1-c1ccc(C(C)(C)O)cn1 [Example 578, 3-bromo-4-[(2,4-difluorobenzyl)oxy]-5′-(1-hydroxy-1-methylethyl)-6-methyl-2H-1,2′-bipyridin-2-one]	< 4.00
O=c1[nH]ccc(OCc2ccccc2)c1Br [Example 11, 4-(benzyloxy)-3-bromopyridin-2(1H)-one]	< 4.00
O=c1c(Br)c(OCc2ccccc2)ccn1Cc1ccc(Cl)cc1 [Example 6]	> 6.00
Cc1cc(OCc2ccc(F)cc2F)c(Br)c(=O)n1-c1cc(C(N)=O)ccc1F [Example 597, 3-[3-bromo-4-[(2,4-difluorobenzyl)oxy]-6-methyl-2-oxopyridin-1(2H)-yl]-4-fluorobenzamide]	> 6.00
Cc1cc(OCc2ccc(F)cc2F)c(Br)c(=O)n1Cc1cccc(CN)c1 [Example 161, 1-[3-(aminomethyl)benzyl]-3-bromo-4-[(2,4-difluorobenzyl)oxy]-6-methylpyridin-2(1H)-one]	> 6.00
O=c1c(Br)c(OCc2ccccc2)ccn1Cc1ccc(Br)cc1 [Example 4]	> 6.00
Cc1cccc(C)c1-n1c(C)cc(OCc2c(F)cc(F)cc2F)c(Br)c1=O [Example 366, 3-bromo-1-(2,6-dimethylphenyl)-6-methyl-4-[(2,4,6-trifluorobenzyl)oxy]pyridin-2(1H)-one]	> 6.00
Cc1cc(OCc2ccc(F)cc2F)c(Br)c(=O)n1Cc1cnc(C(=O)N2CCN(C)CC2)cn1 [Example 405, 3-bromo-4-[(2,4-difluorobenzyl)oxy]-6-methyl-1-({5-[(4-methylpiperazin-1-yl)carbonyl]pyrazin-2-yl}methyl)pyridin-2(1H)-one Trifluoroacetate]	> 6.00
O=c1cc(OCc2ccccc2)ccn1Cc1ccc(Br)cc1 [Example 3]	< 4.00
Cc1cc(OCc2ccc(F)cc2F)c(Br)c(=O)n1Cc1ccc(C(=O)N(CCO)CCO)cc1 [Example 223]	> 6.00
Cc1ccc(C(C)(C)O)cc1-n1c(C)cc(OCc2ccc(F)cc2F)c(Br)c1=O [Example 492, 3-bromo-4-[(2,4-difluorobenzyl)oxy]-1-[5-(1-hydroxy-1-methylethyl)-2-methylphenyl]-6-methylpyridin-2(1H)-one]	> 6.00
Cc1ccc(C(=O)NCCO)cc1-n1c(C)cc(OCc2ccc(F)cc2F)c(Br)c1=O [Example 487, 3-[3-bromo-4-[(2,4-difluorobenzyl)oxy]-6-methyl-2-oxopyridin-1(2H)-yl]-N-(2-hydroxyethyl)-4-methylbenzamide]	> 6.00
Cc1cc(OCc2ccc(F)cc2F)c(Br)c(=O)n1-c1cccc(C(=O)NCCN)c1 [Example 275]	> 6.00
Cc1cc(OCc2ccc(F)cc2F)c(Br)c(=O)n1Cc1ccc(C(=O)NC(C)C)cc1 [Example 225]	> 6.00
Cc1cc(OCc2ccc(F)cc2F)c(Br)c(=O)n1-c1c(F)cc(N(C)C)cc1F [Example 321, 3-bromo-4-[(2,4-difluorobenzyl)oxy]-1-[4-(dimethylamino)-2,6-difluorophenyl]-6-methylpyridin-2(1H)-one]	> 6.00
Cc1cc(OCc2ccc(F)cc2F)c(Br)c(=O)n1-c1c(F)cc(N(C)CCO)cc1F [Example 322, 3-bromo-4-[(2,4-difluorobenzyl)oxy]-1-{2,6-difluoro-4-[(2-hydroxyethyl)(methyl)amino]phenyl}-6-methylpyridin-2(1H)-one]	> 6.00
Cc1cccc(COc2ccn(Cc3cccc(F)c3)c(=O)c2Br)c1 [Example 117]	> 6.00
Cc1cc(OCc2ccc(F)cc2F)c(Br)c(=O)n1-c1c(F)cc(Br)cc1F [Example 312, 3-bromo-1-(4-bromo-2,6-difluorophenyl)-4-[(2,4-difluorobenzyl)oxy]-6-methylpyridin-2(1H)-one]	> 6.00
CNC(=O)c1cccc(-n2c(C)cc(OCc3ccc(F)cc3F)c(Br)c2=O)c1 [Example 273, 3-[3-bromo-4-[(2,4-difluorobenzyl)oxy]-6-methyl-2-oxopyridin-1(2H)-yl]-N-methylbenzamide]	> 6.00
Cc1cc(OCc2ccc(F)cc2F)c(Br)c(=O)n1Cc1ccc(C(=O)NCCN)cc1 [Example 217]	> 6.00
